# Data taken from PubChem BioAssay (Tox21).
# Sequences of proteins named here, by UniProt entry; tags and fusion partners are left off. A change or cut given only in a name is not applied to a line headed by its entry.
# UniProt P11229: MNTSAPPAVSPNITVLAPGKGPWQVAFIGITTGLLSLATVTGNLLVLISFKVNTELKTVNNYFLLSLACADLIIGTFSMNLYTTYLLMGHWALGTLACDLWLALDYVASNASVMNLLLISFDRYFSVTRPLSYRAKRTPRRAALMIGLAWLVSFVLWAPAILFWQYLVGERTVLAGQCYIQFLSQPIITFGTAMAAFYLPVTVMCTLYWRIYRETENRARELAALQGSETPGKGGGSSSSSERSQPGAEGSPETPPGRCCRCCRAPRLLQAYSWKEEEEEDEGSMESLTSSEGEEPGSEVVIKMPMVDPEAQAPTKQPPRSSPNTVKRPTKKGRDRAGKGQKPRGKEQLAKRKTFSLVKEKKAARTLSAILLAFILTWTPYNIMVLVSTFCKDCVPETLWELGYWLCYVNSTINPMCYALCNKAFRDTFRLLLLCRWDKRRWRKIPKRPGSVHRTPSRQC
# For some assays here: Shown are results outside the selection of hits, which stands elsewhere. Results filed as inconclusive are left out. The entries are a selection whose mix differs from that of the whole data set. Active and inactive are the calls of the source. Calls come from the whole dose curve.
# Key:
# [1] = molecular target: Muscarinic acetylcholine receptor M1 (Homo sapiens) (UniProt P11229); experiment: Cholinergic receptor muscarinic 1 (CHRM1) small molecule antagonists, cell-based qHTS assay (AID 1963588); details: CHRM1-CHO antagonist mode, calcium flux fluorescence; at 61.5 µM (top of the series); note: % is set by controls: 0 for no effect and ±100 for the full control effect; nearly all actives have a fitted effect of over 40% in size
# From the text: National Center for Advancing Translational Sciences [NCATS]
# Division of Preclinical Innovation [DPI]
# U.S. Environmental Protection Agency [EPA]
# National Institutes of Environmental Health Sciences [NIEHS]
# National Toxicology Program [NTP]
# U.S. Food and Drug Administration [FDA]
# The CHRM1 is a muscarinic receptor. This receptor plays a crucial role in learning and memory processes and has long been identified as a promising therapeutic target for the improvement of cognitive decline in Alzheimer's disease (AD). The CHRM1-CHO cell line stably expressing human muscarinic acetylcholine receptor M1 (CHRM1) can be used for screening agonists and antagonists of interactions between CHRM1 and its ligands. The CHRM1-CHO Calcium Flux Assay is a homogeneous fluorescence-based assay for detecting the intracellular calcium level using FDSS kinetic plate reader system.
# Tox21 Assay Protocol Summary:
# CHRM1-CHO cells were dispensed at 1000 cells/3uL/well in 1536-well black-clear bottom plates using a Multidrop Dispenser. After the assay plates were incubated at a 37 C/5% CO2 incubator for 18 h, 3 uL of Dye Loading Buffer was transferred to the assay plate by a Flying Reagent Dispenser. […] The fluorescence intensity in the plates was measured using FDSS 7000EX kinetic plate reader for 3 min at 1 sec intervals. Each test compound was measured at 15 concentrations in three independent runs.
# [2] = molecular target: Muscarinic acetylcholine receptor M1 (Homo sapiens) (UniProt P11229); experiment: Cholinergic receptor muscarinic 1 (CHRM1) small molecule agonists, cell-based qHTS assay (AID 1963589); details: CHRM1-CHO cells, agonist mode, calcium flux fluorescence; note: potency is the fitted concentration of half-maximal effect; nearly all actives have a fitted effect of over 35% in size
# Summary of the method: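 Fluorescent calcium dye reports M1 activation in stably transfected CHO cells. Compounds, 15 concentrations, added after 1 h dye loading at 37 C; kinetic reading at 1 sec intervals.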
structure (smiles),measurement,setting,value
CCC[CH2][Sn]([CH2]CCC)([CH2]CCC)[O]C(=O)c1ccccc1,"activity, negative = inhibition",[1],inactive: 63.9%
same,Potency,[2],active: 12.3 µM
